From PMC7566476, “MYB61 is regulated by GRF4 and promotes nitrogen utilization and biomass production in rice”
For at least one entry, the source does not settle the construct or the ends of the probe. No signal at the amounts used counts as a negative. Protein sequences can lack the tags named with them.

Target: T1, GST-GRF4 (UniProt Q6ZIK5)
T1 sequence (looked up, limits assumed): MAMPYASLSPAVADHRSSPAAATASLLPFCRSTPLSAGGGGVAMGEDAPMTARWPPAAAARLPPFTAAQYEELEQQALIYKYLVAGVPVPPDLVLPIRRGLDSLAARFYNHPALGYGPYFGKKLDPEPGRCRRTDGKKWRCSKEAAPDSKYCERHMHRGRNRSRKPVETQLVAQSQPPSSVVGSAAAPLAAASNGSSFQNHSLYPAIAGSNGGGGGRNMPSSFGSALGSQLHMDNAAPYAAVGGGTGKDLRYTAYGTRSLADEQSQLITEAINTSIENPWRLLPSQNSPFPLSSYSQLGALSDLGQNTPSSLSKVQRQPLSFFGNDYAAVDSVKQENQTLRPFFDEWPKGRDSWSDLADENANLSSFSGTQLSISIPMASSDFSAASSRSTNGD
Experiment: EMSA
Conditions: EMSA binding buffer (Beyotime; composition, salt and pH not given), 4 °C; unlabeled competitor 50-, 100- and 500-fold; recombinant protein; protein details: N-terminal GST (pGEX-6P-1); label: biotin

“CATCGAGGGGCGGCAACTAATGTT (double strand) [MYB61 promoter motif 1 probe]”: no binding.
